Test results as given in patent publication US9744124B2, “Flowable composition that hardens on delivery to a target tissue site beneath the skin” (Warsaw Orthopedic, Inc., priority 2008, dated 2017).
Where two headings read alike, the source gives them in different places. For at least one compound, name, drawing or mass did not settle the structure.

Key:
[1] = system: anterior cruciate ligament transection of the right knee to stimulate osteoarthritis; assay: In-vivo study of solvent depletion depot in rabbit osteoarthritis model, knee joint histology; details: rabbits euthanized at three and six months; dexamethasone groups (systemic injections; 2 ml depot into knee joint, with or without prior PBS wash) compared with negative controls
[2] = system: anterior cruciate ligament transection of the right knee to stimulate osteoarthritis; details: rabbits euthanized at three and six months; dexamethasone groups (systemic injections; 2 ml depot into knee joint, with or without prior PBS wash) compared with negative controls

Question: What does the source list for `C[C@@H]1C[C@H]2[C@@H]3CCC4=CC(=O)C=C[C@]4(C)[C@@]3(F)[C@@H](O)C[C@]2(C)[C@@]1(O)C(=O)CO` [dexamethasone, Dexamethasone]?
Answer: inflammation in histology sections of the knee joints [1]: decreased inflammation; inflammation in histology sections of the knee joints [2]: decreased inflammation
